Data source: PubChem BioAssay AID1224826 (NIAID, 2016)
Assay: 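Knock-downs that raise or lower Tnf reporter signal after endotoxin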 (primary screen). Cell system: RAW264.7 G9 macrophages from mouse bearing reporters for p65 (GFP) and the Tnf promoter (mCherry). Knock-down reagent: siRNA pool against mouse genes, 100 nM. Timing: 16 h of LPS stimulation, after 2 days of siRNA transfection. Challenge: bacterial lipopolysaccharide (Salmonella minnesota R595), 10 ng/ml. Read-out: 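Nuclear mCherry signal of the Tnf promoter reporter measured by imaging after background removal, scaled to each plate median and turned into robust z-scores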. Scale: Tnf reporter robust z-score: higher = stronger Tnf promoter reporter signal after LPS; Tnf reporter intensity: higher = stronger Tnf promoter reporter signal. Hit rule: 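Called active when robust z-score is at most -1.3, matching the median of the Tlr4 knock-down control, or over 3; control wells and wells with under 50 cells never active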. Calls: active = Tnf reporter clearly lowered or raised; inactive = no clear change in Tnf reporter.
Shown is an unselected part of about 17,000 reagents tested. About 1,110 of all reagents (6.6%) count as active. 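Active means lowered or raised reporter signal; replicate intensities are raw and not normalised per plate.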 The numbers tell different reagents against one gene apart.

target | pool no. | Tnf reporter robust z-score | fewer than 50 cells in well | Tnf reporter intensity, replicate 1 | Tnf reporter intensity, replicate 2 | outcome
Abcd3 | 1 | -0.22 | enough cells in well | 151 | 148 | inactive
Klk1b5 | 1 | 0.24 | enough cells in well | 221 | 133 | inactive
Wdr47 | 1 | 0.11 | enough cells in well | 150 | 68.8 | inactive
Psd3 | 1 | -0.97 | enough cells in well | 126 | 109 | inactive
Psd3 | 2 | 0.47 | enough cells in well | 227 | 254 | inactive
Lrrk1 | 1 | -0.27 | enough cells in well | 188 | 121 | inactive
Herc6 | 1 | 2.09 | enough cells in well | 281 | 255 | inactive
Birc2 | 1 | 2.76 | enough cells in well | 245 | 360 | inactive
Lsamp | 1 | 3.68 | enough cells in well | 509 | 258 | active
Padi2 | 1 | – | fewer than 50 cells per well; well left out of calls | 98.2 | 88.5 | inactive
Or2b4 | 1 | -0.61 | enough cells in well | 157 | 86.2 | inactive
Stra6 | 1 | – | fewer than 50 cells per well; well left out of calls | 51 | 53.4 | inactive
Rnpepl1 | 1 | 1.24 | enough cells in well | 174 | 188 | inactive
Kcnc4 | 1 | 0.02 | enough cells in well | 206 | 177 | inactive
Plaat1 | 1 | 0.29 | enough cells in well | 267 | 202 | inactive
Sp2 | 1 | -0.15 | enough cells in well | 242 | 223 | inactive
Fbxw15 | 1 | -0.13 | enough cells in well | 182 | 140 | inactive
Zfp113 | 1 | – | fewer than 50 cells per well; well left out of calls | 49.2 | 39.3 | inactive
Ccl21a | 1 | -0.57 | enough cells in well | 183 | 183 | inactive
5031404N07 | 1 | -0.43 | enough cells in well | 163 | 114 | inactive
Nat8 | 1 | -1.17 | enough cells in well | 171 | 105 | inactive
Gucy1b2 | 1 | -0.8 | enough cells in well | 174 | 123 | inactive
Psma4 | 1 | – | fewer than 50 cells per well; well left out of calls | 403 | 342 | inactive
C6 | 1 | -0.19 | enough cells in well | 151 | 131 | inactive
